# ± gives the standard deviation of the averaged measurements. Only a part is listed here, and it is no random draw.
# Columns and labels:
# Experiment in all cases: NP40-soluble protein abundance relative to vehicle (solubility fold change) (ratio); higher = more soluble protein in presence of ATP
# [1] = target: T1, H0Y2P2 and related entries (UniProt Q96IV0)
# T1 sequence (whole entry): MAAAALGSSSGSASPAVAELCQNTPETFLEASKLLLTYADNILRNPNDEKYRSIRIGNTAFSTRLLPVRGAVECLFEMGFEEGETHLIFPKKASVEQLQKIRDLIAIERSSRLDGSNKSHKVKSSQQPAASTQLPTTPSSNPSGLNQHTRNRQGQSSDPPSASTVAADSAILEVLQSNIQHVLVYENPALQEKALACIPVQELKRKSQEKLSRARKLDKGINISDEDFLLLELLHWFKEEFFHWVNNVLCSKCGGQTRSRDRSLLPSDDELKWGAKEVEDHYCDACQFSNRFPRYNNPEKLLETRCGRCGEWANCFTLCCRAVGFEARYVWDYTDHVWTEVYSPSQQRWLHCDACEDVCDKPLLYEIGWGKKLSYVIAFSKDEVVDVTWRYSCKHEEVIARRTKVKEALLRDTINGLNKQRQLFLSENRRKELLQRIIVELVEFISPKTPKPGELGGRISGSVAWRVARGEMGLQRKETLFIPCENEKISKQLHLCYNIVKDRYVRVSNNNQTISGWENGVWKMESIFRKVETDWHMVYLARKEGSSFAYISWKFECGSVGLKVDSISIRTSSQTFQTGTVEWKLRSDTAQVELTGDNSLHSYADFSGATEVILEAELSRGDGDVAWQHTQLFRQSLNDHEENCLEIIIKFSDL
# Summary of the method: (§1)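 Crude Jurkat lysate, prepared by Dounce homogenisation, was exposed to eight concentrations from 0.1 to 10 mM for 10 min at room temperature and then 3 min at 37 °C. Solubilisation used 0.8% NP40 with benzonase for 60 min at 4 °C, followed by ultracentrifugation and TMT labelling of the supernatant for LC-MS/MS. After vsn normalisation of intensities, each value is the fold change against the detergent-processed vehicle within each replicate, across three independent experiments.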
# [2] = target: T2, H0Y6T6 and related entries (UniProt Q8IXM6)
# T2 sequence (whole entry): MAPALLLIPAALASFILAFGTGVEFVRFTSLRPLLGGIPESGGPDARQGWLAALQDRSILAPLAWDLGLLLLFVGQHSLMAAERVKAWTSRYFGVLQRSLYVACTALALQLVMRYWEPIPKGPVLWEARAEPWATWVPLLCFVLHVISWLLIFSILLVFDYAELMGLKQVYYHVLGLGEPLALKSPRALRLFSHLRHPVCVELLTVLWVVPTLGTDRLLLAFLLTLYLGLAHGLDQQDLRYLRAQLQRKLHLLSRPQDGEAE
# Summary of the method: as §1
# [3] = target: T3, H0Y714 and related entries (UniProt Q96G21)
# T3 sequence (whole entry): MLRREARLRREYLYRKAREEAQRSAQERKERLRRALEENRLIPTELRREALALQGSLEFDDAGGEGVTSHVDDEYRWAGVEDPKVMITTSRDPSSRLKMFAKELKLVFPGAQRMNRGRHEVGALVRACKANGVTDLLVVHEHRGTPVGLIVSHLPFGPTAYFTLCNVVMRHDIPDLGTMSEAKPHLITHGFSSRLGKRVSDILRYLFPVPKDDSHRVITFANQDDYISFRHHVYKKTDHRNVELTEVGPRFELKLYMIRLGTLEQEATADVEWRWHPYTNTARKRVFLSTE
# Summary of the method: as §1
# [4] = target: T4, H0Y7P7 and related entries (UniProt Q9UG56)
# T4 sequence (whole entry): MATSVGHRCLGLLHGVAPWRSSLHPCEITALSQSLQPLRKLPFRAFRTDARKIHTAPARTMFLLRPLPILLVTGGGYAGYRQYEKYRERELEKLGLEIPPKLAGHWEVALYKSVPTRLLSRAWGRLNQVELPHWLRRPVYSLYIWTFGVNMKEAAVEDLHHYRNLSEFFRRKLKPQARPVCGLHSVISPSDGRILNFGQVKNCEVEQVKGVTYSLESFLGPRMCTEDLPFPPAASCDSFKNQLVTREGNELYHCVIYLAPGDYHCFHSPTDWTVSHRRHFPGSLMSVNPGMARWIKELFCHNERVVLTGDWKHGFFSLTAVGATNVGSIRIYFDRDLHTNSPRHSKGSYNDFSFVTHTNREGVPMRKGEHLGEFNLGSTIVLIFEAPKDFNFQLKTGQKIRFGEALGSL
# Summary of the method: as §1
# [5] = target: T5, H0Y9I3 and related entries (UniProt Q9HAV4)
# T5 sequence (whole entry): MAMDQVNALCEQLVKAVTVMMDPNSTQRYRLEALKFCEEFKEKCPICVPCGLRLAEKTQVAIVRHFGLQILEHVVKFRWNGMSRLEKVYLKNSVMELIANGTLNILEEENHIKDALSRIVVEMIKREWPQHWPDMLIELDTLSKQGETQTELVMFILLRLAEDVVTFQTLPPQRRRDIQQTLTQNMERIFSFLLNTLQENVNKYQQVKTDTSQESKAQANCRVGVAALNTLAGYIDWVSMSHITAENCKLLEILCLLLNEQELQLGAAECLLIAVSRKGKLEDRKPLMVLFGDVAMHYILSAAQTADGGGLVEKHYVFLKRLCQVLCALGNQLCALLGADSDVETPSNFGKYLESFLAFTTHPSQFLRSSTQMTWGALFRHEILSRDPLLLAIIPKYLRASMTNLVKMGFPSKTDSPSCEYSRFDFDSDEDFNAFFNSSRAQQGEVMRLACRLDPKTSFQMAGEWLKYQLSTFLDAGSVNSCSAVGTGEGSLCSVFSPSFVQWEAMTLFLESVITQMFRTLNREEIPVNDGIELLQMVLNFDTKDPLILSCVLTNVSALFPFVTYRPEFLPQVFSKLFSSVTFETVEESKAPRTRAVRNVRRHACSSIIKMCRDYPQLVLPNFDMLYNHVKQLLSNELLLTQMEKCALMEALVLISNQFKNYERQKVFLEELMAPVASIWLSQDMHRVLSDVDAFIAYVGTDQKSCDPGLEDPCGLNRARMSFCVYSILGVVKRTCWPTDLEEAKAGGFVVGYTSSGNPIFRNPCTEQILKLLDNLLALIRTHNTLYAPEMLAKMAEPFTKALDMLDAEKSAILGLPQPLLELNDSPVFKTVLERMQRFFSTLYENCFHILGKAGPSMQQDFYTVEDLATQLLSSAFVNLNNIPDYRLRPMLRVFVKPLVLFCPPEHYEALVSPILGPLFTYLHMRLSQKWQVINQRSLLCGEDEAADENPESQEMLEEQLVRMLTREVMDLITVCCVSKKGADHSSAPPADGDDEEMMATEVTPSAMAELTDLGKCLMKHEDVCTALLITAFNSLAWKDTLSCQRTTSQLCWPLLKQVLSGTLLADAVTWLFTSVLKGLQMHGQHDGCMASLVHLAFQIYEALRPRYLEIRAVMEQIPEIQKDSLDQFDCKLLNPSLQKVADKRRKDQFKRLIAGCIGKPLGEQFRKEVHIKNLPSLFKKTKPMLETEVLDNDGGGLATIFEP
# Summary of the method: as §1
# [6] = target: T6, H0YBI6 and related entries (UniProt Q86VQ6)
# T6 sequence (whole entry): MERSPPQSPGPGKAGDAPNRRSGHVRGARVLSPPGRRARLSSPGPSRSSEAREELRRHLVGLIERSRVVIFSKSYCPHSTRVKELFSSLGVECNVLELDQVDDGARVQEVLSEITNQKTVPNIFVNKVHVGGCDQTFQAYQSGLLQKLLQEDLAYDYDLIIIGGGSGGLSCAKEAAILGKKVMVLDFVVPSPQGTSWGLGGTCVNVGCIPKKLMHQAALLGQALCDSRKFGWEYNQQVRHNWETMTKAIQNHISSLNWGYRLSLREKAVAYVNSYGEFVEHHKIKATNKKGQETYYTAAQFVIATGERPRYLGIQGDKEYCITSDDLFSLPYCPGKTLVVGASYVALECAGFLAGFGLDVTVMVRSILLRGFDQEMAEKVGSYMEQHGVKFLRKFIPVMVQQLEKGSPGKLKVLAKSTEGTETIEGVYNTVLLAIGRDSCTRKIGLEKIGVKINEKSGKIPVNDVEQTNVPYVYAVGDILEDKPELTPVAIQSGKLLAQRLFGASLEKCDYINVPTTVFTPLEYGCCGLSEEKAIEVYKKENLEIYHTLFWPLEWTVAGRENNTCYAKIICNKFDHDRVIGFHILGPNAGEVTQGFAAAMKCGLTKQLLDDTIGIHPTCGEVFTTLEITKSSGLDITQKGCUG
# Summary of the method: as §1
# [7] = target: T7, H0YMI4 and related entries (UniProt Q9Y6I4)
# T7 sequence (whole entry): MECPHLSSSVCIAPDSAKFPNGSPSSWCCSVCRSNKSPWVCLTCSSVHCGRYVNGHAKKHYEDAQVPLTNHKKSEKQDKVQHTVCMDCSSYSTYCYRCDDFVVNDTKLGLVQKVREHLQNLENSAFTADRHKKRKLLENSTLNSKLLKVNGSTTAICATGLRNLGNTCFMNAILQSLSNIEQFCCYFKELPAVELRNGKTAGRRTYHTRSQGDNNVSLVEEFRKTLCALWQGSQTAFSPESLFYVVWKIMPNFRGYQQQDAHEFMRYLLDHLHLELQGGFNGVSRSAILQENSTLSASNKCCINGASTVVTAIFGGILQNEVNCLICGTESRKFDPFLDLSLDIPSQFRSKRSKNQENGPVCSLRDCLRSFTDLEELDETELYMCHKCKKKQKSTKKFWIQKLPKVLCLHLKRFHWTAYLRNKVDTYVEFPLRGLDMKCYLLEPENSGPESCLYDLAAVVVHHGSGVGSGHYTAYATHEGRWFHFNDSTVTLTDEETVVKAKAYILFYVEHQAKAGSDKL
# Summary of the method: as §1
# [8] = target: T8, H0YN33 and related entries (UniProt Q9BW66)
# T8 sequence (whole entry): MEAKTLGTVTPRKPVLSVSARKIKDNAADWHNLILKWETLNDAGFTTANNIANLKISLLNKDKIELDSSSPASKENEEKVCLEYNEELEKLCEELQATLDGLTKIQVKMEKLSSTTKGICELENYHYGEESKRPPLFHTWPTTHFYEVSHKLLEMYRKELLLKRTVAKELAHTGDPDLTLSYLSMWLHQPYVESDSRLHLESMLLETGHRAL
# Summary of the method: as §1
smiles,measurement,setting,value
Nc1ncnc2c1ncn2[C@@H]1O[C@H](COP(=O)(O)OP(=O)(O)OP(=O)(O)O)[C@@H](O)[C@H]1O [adenosine triphosphate],NP40-soluble protein abundance,[1]; concentration: 1mM,0.956 ± 0.064
same,NP40-soluble protein abundance,[1]; concentration: 2mM,0.946 ± 0.04
same,NP40-soluble protein abundance,[1]; concentration: 4mM,0.942 ± 0.046
same,NP40-soluble protein abundance,[1]; concentration: 6mM,0.902 ± 0.039
same,NP40-soluble protein abundance,[1]; concentration: 8mM,0.937 ± 0.046
same,NP40-soluble protein abundance,[1]; concentration: 10mM,0.955 ± 0.029
same,NP40-soluble protein abundance,[2]; concentration: 1mM,0.99 ± 0.17
same,NP40-soluble protein abundance,[2]; concentration: 2mM,0.969 ± 0.08
same,NP40-soluble protein abundance,[2]; concentration: 4mM,0.966 ± 0.084
same,NP40-soluble protein abundance,[2]; concentration: 6mM,0.722 ± 0.078
same,NP40-soluble protein abundance,[2]; concentration: 8mM,0.957 ± 0.098
same,NP40-soluble protein abundance,[2]; concentration: 10mM,1.03 ± 0.13
same,NP40-soluble protein abundance,[3]; concentration: 1mM,1.01 ± 0.17
same,NP40-soluble protein abundance,[3]; concentration: 2mM,1.06 ± 0.15
same,NP40-soluble protein abundance,[3]; concentration: 4mM,1.09 ± 0.036
same,NP40-soluble protein abundance,[3]; concentration: 6mM,1.01 ± 0.29
same,NP40-soluble protein abundance,[3]; concentration: 8mM,1.12 ± 0.18
same,NP40-soluble protein abundance,[3]; concentration: 10mM,1.16 ± 0.16
same,NP40-soluble protein abundance,[4]; concentration: 1mM,0.975 ± 0.077
same,NP40-soluble protein abundance,[4]; concentration: 2mM,0.962 ± 0.041
same,NP40-soluble protein abundance,[4]; concentration: 4mM,0.998 ± 0.075
same,NP40-soluble protein abundance,[4]; concentration: 6mM,0.998 ± 0.049
same,NP40-soluble protein abundance,[4]; concentration: 8mM,1.02 ± 0.071
same,NP40-soluble protein abundance,[4]; concentration: 10mM,0.988 ± 0.046
same,NP40-soluble protein abundance,[5]; concentration: 1mM,0.977 ± 0.071
same,NP40-soluble protein abundance,[5]; concentration: 2mM,0.954 ± 0.055
same,NP40-soluble protein abundance,[5]; concentration: 4mM,0.961 ± 0.062
same,NP40-soluble protein abundance,[5]; concentration: 6mM,0.931 ± 0.11
same,NP40-soluble protein abundance,[5]; concentration: 8mM,0.983 ± 0.056
same,NP40-soluble protein abundance,[5]; concentration: 10mM,0.95 ± 0.064
same,NP40-soluble protein abundance,[6]; concentration: 1mM,0.995 ± 0.15
same,NP40-soluble protein abundance,[6]; concentration: 2mM,1 ± 0.065
same,NP40-soluble protein abundance,[6]; concentration: 4mM,0.97 ± 0.11
same,NP40-soluble protein abundance,[6]; concentration: 6mM,0.962 ± 0.13
same,NP40-soluble protein abundance,[6]; concentration: 8mM,1.01 ± 0.11
same,NP40-soluble protein abundance,[6]; concentration: 10mM,1 ± 0.075
same,NP40-soluble protein abundance,[7]; concentration: 1mM,0.977 ± 0.064
same,NP40-soluble protein abundance,[7]; concentration: 2mM,1.02 ± 0.034
same,NP40-soluble protein abundance,[7]; concentration: 4mM,1.03 ± 0.045
same,NP40-soluble protein abundance,[7]; concentration: 6mM,0.96 ± 0.075
same,NP40-soluble protein abundance,[7]; concentration: 8mM,0.985 ± 0.035
same,NP40-soluble protein abundance,[7]; concentration: 10mM,0.992 ± 0.044
same,NP40-soluble protein abundance,[8]; concentration: 1mM,1.34 ± 0.081
same,NP40-soluble protein abundance,[8]; concentration: 2mM,1.39 ± 0.026
same,NP40-soluble protein abundance,[8]; concentration: 4mM,1.41 ± 0.086
same,NP40-soluble protein abundance,[8]; concentration: 6mM,1.48 ± 0.092
same,NP40-soluble protein abundance,[8]; concentration: 8mM,1.54 ± 0.14
same,NP40-soluble protein abundance,[8]; concentration: 10mM,1.38 ± 0.1

# Retrieved one by one from the entries so far, four records:
smiles,measurement,setting,value
Nc1ncnc2c1ncn2[C@@H]1O[C@H](COP(=O)(O)OP(=O)(O)OP(=O)(O)O)[C@@H](O)[C@H]1O [adenosine triphosphate],NP40-soluble protein abundance,[7]; concentration: 1mM,0.977 ± 0.064
same,NP40-soluble protein abundance,[7]; concentration: 6mM,0.96 ± 0.075
same,NP40-soluble protein abundance,[8]; concentration: 1mM,1.34 ± 0.081
same,NP40-soluble protein abundance,[2]; concentration: 8mM,0.957 ± 0.098

# From the supplement of paper PMC6411743
